# How the values were obtained:
# [1] = Electrowetting test cell: responsiveness and back flow of dye ink on application of voltage; details: for Back flow ratio [%]: after 5 seconds in the voltage on state
# Protocol: (§1) To a normal decane solution, which was obtained by bubbling argon gas into normal decane (n-decane) such that the content of dissolved oxygen was 10 ppm or less, the exemplary compounds 5, 15, or 23 was added such that the dye concentration was 40% by mass or 10% by mass, as shown in Table 2 and Table 3 below. In this way, the dye inks used as oils were prepared.
# (§2) On a surface of the ITO film of a glass substrate (10 mm×10 mm) equipped with an indium tin oxide (ITO) film with a thickness of 100 nm as a transparent electrode, a fluorine-containing polymer (trade name: CYTOP, manufactured by Asahi Glass Co., Ltd., model number: CTL-809M) was coated such that the thickness was 600 nm, thereby forming a fluorine-containing polymer layer as a hydrophobic insulating film. Subsequently, on this fluorine-containing polymer layer, a frame-shaped silicone rubber wall which had been prepared by cutting out a tetrahedron having a size of 8 mm×8 mm×50 μm from the middle of a silicone rubber having a size of 1 cm×1 cm (a sealant having a thickness of 50 μm; SILI-US (trade name), manufactured by Fuso Rubber Co., Ltd.) was placed to form a display member. Into the region enclosed by this silicone rubber wall, the dye ink obtained as described above was injected such that the thickness became 4 μm. On the dye ink that had been injected, ethylene glycol was injected such that the thickness became 46 μm. On this assembly, a glass substrate equipped with an ITO film was further placed such that the ITO film faced the dye ink or the electrolyte aqueous solution, and was fixed.
# To each of the ITO films (transparent electrodes) of the two glass substrates each equipped with an ITO film, a DC voltage of 100 V was applied (a minus voltage was applied to the ITO electrode on the side having thereon the fluorine-containing polymer (hydrophobic insulating film)) by using a signal generator, and the display cell (display cell 30 in FIG. 2) was observed. As a result, it was confirmed that the dye ink had moved toward one direction on the surface of the fluorine-containing polymer layer, and the area of the dye ink covering the fluorine-containing polymer layer was reduced. The responsiveness of the dye ink in this process, and the degree of the back flow phenomenon, when kept in the voltage on state as it was, were evaluated.
# The reduction of the area by application of a voltage was evaluated based on the area shrinkage factor [%] calculated according to the following Equation (1), and the back flow phenomenon was evaluated based on the back flow ratio [%] calculated according to the following Equation (2). a) Response time [msec]=Time needed to reach the most shrink state from the initiation of application, when the application of a voltage is initiated from the voltage non-applying state b) Area shrinkage factor [%]=(Area of the dye ink when the dye ink shrinks at the most)/(Area of the dye ink before application of voltage)×100 Equation (1) c) Back flow ratio [%]=(Area of the dye ink after 5 seconds have past in the voltage on state)/(Area of the dye ink when the dye ink shrinks at the most)×100 Equation (2)
# [2] = OD (image density) of dye ink in electrowetting test cell, spectroradiometer; details: at maximum absorption wavelength, per 1 μm-thickness of the oil layer
# Protocol: as §1
# as §2, with “Into the region enclosed by this silicone rubber wall, the dye ink obtained as described above was injected such that the thickness became 4 μm. On the dye ink that had been injected, ethylene glycol was injected such that the thickness became 46 μm. On this assembly, a glass substrate equipped with an ITO film was further placed such that the ITO film faced the dye ink or the electrolyte aqueous solution, and was fixed.” left out
# Further, regarding the OD (image density), the OD value at the maximum absorption wavelength of the dye was measured using a spectroradiometer (trade name: SR-3, manufactured by TOPCON CORPORATION) and was evaluated. […]
structure (smiles),measurement,setting,value
CCCCCCC(Oc1ccc(C(C)(C)CC)cc1C(C)(C)CC)C(=O)NCC(C)c1nc2/c(=C\c3c(C)nn4nc(C(C)CNC(=O)C(CCCCCC)Oc5ccc(C(C)(C)CC)cc5C(C)(C)CC)[nH]c34)c(C)nn2n1 (centres unmarked) [Exemplary compound 5],Response time,"[1]; Dye density: 10% by mass in n-decane, DC voltage of 100 V",<200 ms
same,Area shrinkage [%],"[1]; Dye density: 10% by mass in n-decane, DC voltage of 100 V, 100% = not shrunk",20%
same,Back flow ratio [%],[1]; Dye density: 10% by mass in n-decane,120%
same,Response time [mSec],"[1]; Dye density: 40% by mass in n-decane, DC voltage of 100 V",200~1000 mSec
same,Area shrinkage factor [%],"[1]; Dye density: 40% by mass in n-decane, DC voltage of 100 V, 100% = not shrunk",28%
same,Back flow ratio [%],[1]; Dye density: 40% by mass in n-decane,110%
same,OD,[2]; Dye density: 10% by mass,0.53
same,OD,[2]; Dye density: 40% by mass,2.1
